# Legend:
# [1] = Yellowness index of injection molded polycarbonate plaques, MAKROLON 2608-1000 (Example 76); conditions: 0.3% UV absorber plus 0.08% Phosphite (Phosphite line: 0.08% alone), ASTM D-1925, average of ten plaques
# [2] = Color change of polycarbonate films, 2000 hours, ASTM G26 method C (Example 87); conditions: polycarbonate film about 1 mil, 5% by weight UV absorber, 2000 hours Xenon Arc, versus unexposed films
# [3] = Gloss retention of poly(butylene terephthalate) plaques, ASTM G26 method A, ASTM D523 (Example 85); conditions: poly(butylene terephthalate) with 1.00% titanium dioxide; P 0.50%, S 0.60%; gloss at 60°
Compound,Yellowness Index [1],ΔYI [2],Gloss Retention % after 500 hrs exposure [3],Gloss Retention % after 750 hrs exposure [3]
"CC(C)(C)CC(C)(C)c1ccc(O)c(-n2nc3ccc(C(F)(F)F)cc3n2)c1 [BB, 5-trifluoromethyl-2-(2-hydroxy-5-tert-octylphenyl)-2H-benzotriazole]",7.9,,,
"CC(C)(C)CC(C)(C)c1cc(Cc2cc(C(C)(C)CC(C)(C)C)cc(-n3nc4ccccc4n3)c2O)c(O)c(-n2nc3ccccc3n2)c1 [Compound B, 2,2′-Methylene-bis[6-(2H-benzotriazol-2-yl)-4-tert-octylphenol]]",,6.0,,
"CC(C)(c1ccccc1)c1cc(-n2nc3ccccc3n2)c(O)c(C(C)(C)c2ccccc2)c1 [Compound P, 2-(2-hydroxy-3,5-di-α-cumylphenyl)-2H-benzotriazole]",7.4,,89%,65%
"CC(C)(C)CC(C)(C)c1cc(Cc2cc(C(C)(C)CC(C)(C)C)cc(-n3nc4ccc(C(F)(F)F)cc4n3)c2O)c(O)c(-n2nc3ccc(C(F)(F)F)cc3n2)c1 [Example 43, 2,2′-Methylene-bis[6-(5-trifluoromethyl-2H-benzotriazol-2-yl)-4-tert-octylphenol]]",,4.4,,
"CC(C)(C)c1ccc(OP(Oc2ccc(C(C)(C)C)cc2C(C)(C)C)Oc2ccc(C(C)(C)C)cc2C(C)(C)C)c(C(C)(C)C)c1 [Phosphite, tris(2,4-di-tert-butylphenyl)phosphite]",4.5,,,
"CC(C)(C)CC(C)(C)c1cc(-n2nc3ccc(C(F)(F)F)cc3n2)c(O)c(C(C)(C)c2ccccc2)c1 [S, 5-trifluoromethyl-2-(2-hydroxy-3-α-cumyl-5-tert-octylphenyl)-2H-benzotriazole]",,,94%,82%
